{"source": "PubChem BioAssay AID1259254 (NCATS, 2017)", "screen": "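Gene knock-downs that lead to re-replication, shown by excess G2 DNA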 (primary screen)", "system": "human HCT116 colorectal cancer cells", "knock-down reagent": "single siRNA against human genes", "time to read-out": "3 days", "read-out": "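Nuclei stained with Hoechst and imaged; cell-cycle phase assigned by DNA content; G2 share scaled per plate, non-targeting siRNA 0%, GMNN siRNA 100%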", "reading the numbers": "G2 robust z-score and G2 cells, % of GMNN control: higher = more G2 cells, more excess DNA replication", "call rule": "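An siRNA counts as active if its G2 robust z-score lies at least 5 MADs above the screen median; here such calls match roughly 38% of GMNN control or more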", "note": "The whole screen tested about 59,000 reagents; below is a part drawn at random. In the full data, about 1,550 (2.6%) are marked active. 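G2 share is only a proxy for re-replication; each gene was hit by three separate siRNAs, and active genes were retested.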 Not all columns of the deposit are shown. Not stated in the record: the amount of reagent."}
{"Gene": "SHH (sonic hedgehog signaling molecule)", "PubChem SID": "SID160716694", "G2 robust z-score": 5.95, "G2 cells, % of GMNN control": 44.8, "outcome": "active"}
{"Gene": "SHH (sonic hedgehog signaling molecule)", "PubChem SID": "SID160716695", "G2 robust z-score": -0.924, "G2 cells, % of GMNN control": -3.54, "outcome": "inactive"}
{"Gene": "SHH (sonic hedgehog signaling molecule)", "PubChem SID": "SID160716696", "G2 robust z-score": 2.87, "G2 cells, % of GMNN control": 23.2, "outcome": "inactive"}
{"Gene": "CPNE2 (copine 2)", "PubChem SID": "SID160761620", "G2 robust z-score": 0.337, "G2 cells, % of GMNN control": 5.34, "outcome": "inactive"}
{"Gene": "CPNE2 (copine 2)", "PubChem SID": "SID160761621", "G2 robust z-score": -0.333, "G2 cells, % of GMNN control": 0.623, "outcome": "inactive"}
{"Gene": "CPNE2 (copine 2)", "PubChem SID": "SID160761622", "G2 robust z-score": 5.08, "G2 cells, % of GMNN control": 38.7, "outcome": "active"}
{"Gene": "LRRC25 (leucine rich repeat containing 25)", "PubChem SID": "SID160756465", "G2 robust z-score": -0.956, "G2 cells, % of GMNN control": -3.76, "outcome": "inactive"}
{"Gene": "LRRC25 (leucine rich repeat containing 25)", "PubChem SID": "SID160756466", "G2 robust z-score": -0.827, "G2 cells, % of GMNN control": -2.85, "outcome": "inactive"}
{"Gene": "LRRC25 (leucine rich repeat containing 25)", "PubChem SID": "SID160756467", "G2 robust z-score": -0.141, "G2 cells, % of GMNN control": 1.97, "outcome": "inactive"}
{"Gene": "SLC45A1", "PubChem SID": "SID160739688", "G2 robust z-score": 0.71, "G2 cells, % of GMNN control": 7.97, "outcome": "inactive"}
{"Gene": "SLC45A1", "PubChem SID": "SID160739689", "G2 robust z-score": -0.147, "G2 cells, % of GMNN control": 1.93, "outcome": "inactive"}
{"Gene": "SLC45A1", "PubChem SID": "SID160739690", "G2 robust z-score": 0.128, "G2 cells, % of GMNN control": 3.86, "outcome": "inactive"}

A few values from above.
Under “outcome”, SHH (sonic hedgehog signaling molecule) [SID160716695] reads inactive
SLC45A1 [SID160739689], outcome = inactive
